1 substance from publication PMC5643326 can be followed below.

No constants are given. Whether binding was seen depends on the method and setting. Binding seen in cells or lysates may run through a third protein. A result given as binding can be weak or reduced; the word gives no strength. Where a sequence is shown, tags or fusion partners need not be part of it.

This test addresses T1, Sch9-FLAG (yeast) (UniProt P11792).
T1 sequence: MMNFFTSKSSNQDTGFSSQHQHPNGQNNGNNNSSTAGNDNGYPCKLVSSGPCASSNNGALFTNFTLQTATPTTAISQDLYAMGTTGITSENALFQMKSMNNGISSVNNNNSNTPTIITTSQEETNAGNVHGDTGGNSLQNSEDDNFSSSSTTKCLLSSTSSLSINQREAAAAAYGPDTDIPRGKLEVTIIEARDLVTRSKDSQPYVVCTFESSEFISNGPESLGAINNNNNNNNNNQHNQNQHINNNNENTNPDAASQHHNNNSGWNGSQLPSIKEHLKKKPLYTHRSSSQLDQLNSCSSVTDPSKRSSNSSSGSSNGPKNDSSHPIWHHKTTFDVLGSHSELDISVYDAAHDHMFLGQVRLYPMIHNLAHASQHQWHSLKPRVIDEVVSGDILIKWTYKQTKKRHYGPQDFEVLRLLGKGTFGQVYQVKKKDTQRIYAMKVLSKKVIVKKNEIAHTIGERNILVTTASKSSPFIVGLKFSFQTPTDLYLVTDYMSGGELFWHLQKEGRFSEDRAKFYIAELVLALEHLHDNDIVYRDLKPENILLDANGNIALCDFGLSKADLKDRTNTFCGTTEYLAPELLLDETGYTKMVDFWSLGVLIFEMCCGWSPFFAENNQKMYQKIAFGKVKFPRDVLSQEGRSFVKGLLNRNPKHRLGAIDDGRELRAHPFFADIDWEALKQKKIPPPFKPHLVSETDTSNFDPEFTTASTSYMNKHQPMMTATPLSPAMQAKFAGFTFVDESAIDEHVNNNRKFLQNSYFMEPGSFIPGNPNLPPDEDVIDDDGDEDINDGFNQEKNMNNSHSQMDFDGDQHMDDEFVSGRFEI
The test is described as follows: co-IP; Sch9-FLAG from cleared glass bead lysate (30-35 mg total protein) of Δsch9 + pYEPlac195-Sch9-FLAG cells bound to anti-FLAG M2 beads, 1 h at 4 °C; 20 mM HEPES-KOH, 150 mM potassium acetate, 2 mM magnesium acetate, 10% glycerol, pH 7.5; wash with 0.1% Triton X-100, then without detergent; immunoblot with α-Sch9, α-Ssb, α-Maf1; control: untagged Sch9.

Regarding Ssa (yeast (endogenous in yeast cells)), the binding entry is “binds”.
